Data as given in ChEMBL document CHEMBL5046222, “Multifunctional Arylsulfone and Arylsulfonamide-Based Ligands with Prominent Mood-Modulating Activity and Benign Safety Profile, Targeting Neuropsychiatric Symptoms of Dementia” (J Med Chem, 2021).

Tests used:
[1] = organism: Rattus norvegicus; assay: animal or person; conditions: Wistar, ip, read-out: MED
[2] = organism: Rattus norvegicus; conditions: in vivo, ip, 10 min
[3] = organism: Rattus norvegicus; assay: animal or person; conditions: Wistar, read-out: MED

Structure (SMILES) | minimal effective dose [1] | MED [2] | minimal effective dose [3]
Cc1cc2c(s1)Nc1ccccc1N=C2N1CCN(C)CC1 [OLANZAPINE] | 3 mg/kg | 1 mg/kg | 3 mg/kg
Cc1nc2n(c(=O)c1CCN1CCC(c3noc4cc(F)ccc34)CC1)CCCC2 [RISPERIDONE] | 0.3 mg/kg | 1 mg/kg | 3 mg/kg
